Test [1] concerns the target T1, flag-Brsk2 (brain-specific serine/threonine-protein kinase 2), from pcDNA-flag-Brsk2 (human) (UniProt Q8IWQ3).
T1 sequence: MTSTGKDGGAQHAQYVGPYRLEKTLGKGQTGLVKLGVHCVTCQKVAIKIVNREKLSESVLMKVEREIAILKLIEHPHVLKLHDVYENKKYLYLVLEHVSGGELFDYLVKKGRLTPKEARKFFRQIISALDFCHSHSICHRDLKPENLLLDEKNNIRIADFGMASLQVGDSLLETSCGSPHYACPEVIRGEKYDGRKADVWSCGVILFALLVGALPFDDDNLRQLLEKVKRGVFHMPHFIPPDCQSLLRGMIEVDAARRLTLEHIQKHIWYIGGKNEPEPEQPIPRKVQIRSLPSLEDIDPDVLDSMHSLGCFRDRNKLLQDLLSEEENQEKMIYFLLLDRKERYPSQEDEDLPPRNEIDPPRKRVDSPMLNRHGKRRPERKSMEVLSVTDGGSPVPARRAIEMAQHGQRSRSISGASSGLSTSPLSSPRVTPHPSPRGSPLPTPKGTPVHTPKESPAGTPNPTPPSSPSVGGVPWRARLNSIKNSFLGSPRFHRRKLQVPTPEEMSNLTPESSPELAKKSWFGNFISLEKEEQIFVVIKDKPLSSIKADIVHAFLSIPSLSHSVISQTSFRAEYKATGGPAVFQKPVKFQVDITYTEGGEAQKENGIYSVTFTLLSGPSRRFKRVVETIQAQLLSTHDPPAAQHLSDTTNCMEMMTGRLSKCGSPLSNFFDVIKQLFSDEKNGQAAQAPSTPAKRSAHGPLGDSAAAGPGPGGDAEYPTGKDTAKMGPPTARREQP
Nature of the test: co-IP.

The chains behind the UniProt entries cited, without tags or fusion partners.
UniProt Q9ERZ3: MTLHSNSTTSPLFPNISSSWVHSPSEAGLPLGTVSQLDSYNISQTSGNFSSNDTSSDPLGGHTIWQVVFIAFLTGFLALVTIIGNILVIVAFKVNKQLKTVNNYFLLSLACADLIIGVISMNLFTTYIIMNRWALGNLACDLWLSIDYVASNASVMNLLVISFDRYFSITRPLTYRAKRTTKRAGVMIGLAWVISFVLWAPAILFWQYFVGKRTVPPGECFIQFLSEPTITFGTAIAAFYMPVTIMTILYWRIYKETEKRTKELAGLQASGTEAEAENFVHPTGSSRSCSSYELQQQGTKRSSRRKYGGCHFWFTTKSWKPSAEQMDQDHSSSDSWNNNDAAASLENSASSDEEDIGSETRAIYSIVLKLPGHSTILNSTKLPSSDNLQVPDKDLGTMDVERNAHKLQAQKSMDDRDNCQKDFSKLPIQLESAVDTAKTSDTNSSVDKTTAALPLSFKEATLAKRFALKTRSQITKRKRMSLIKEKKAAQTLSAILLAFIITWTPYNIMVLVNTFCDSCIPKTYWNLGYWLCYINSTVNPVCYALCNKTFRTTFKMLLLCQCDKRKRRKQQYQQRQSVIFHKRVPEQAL

The target of test [2] is T2, Flag-Brsk2 expressed from the adenovirus Ad-Brsk2 in MIN6 cells (human) (UniProt Q8IWQ3).
T2 sequence: T1 sequence
The experiment in a line: co-IP.

These are yes or no findings as the source states them, for the method shown. Binding seen in cells or lysates may run through a third protein. Some entries that bind do so weakly or less than the wild type. Tags and fused reporters may be left off the sequences shown.

Data on two molecules can be found in paper doi:10.1101/2021.08.05.455219.

“mCherry-Chrm3 (cholinergic receptor M3), from pmCherry-Chrm3 (from UniProt Q9ERZ3 1-589)”: the binding result in test [1] is listed as “binds”.

B1: phospholipase A2 activating protein (Plaa) of MIN6 cells (protein, UniProt P27612 1-794)
chain: MASGASRYRLSCSLPGHELDVRGLVCCLYPPGAFVSVSRDRTTRLWAPDSPNRGFTEMHCMSGHSNFVSCVCIIPSSDIYPHGLIATGGNDHNICIFSLDSPMPLYILKGHKDTVCSLSSGKFGTLLSGSWDTTAKVWLNDKCMMTLQGHTAAVWAVKILPEQGLMLTGSADKTIKLWKAGRCERTFLGHEDCVRGLAILSETEFLSCANDASIRRWQITGECLEVYFGHTNYIYSISVFPNSKDFVTTAEDRSLRIWKHGECAQTIRLPAQSIWCCCVLENGDIVVGASDGIIRVFTESEERTASAEEIKAFERELSQATIDSKTGDLGDINAEQLPGREHLSEPGTREGQTRLIRDGERVEAYQWSVSDGRWIKIGDVVGSSGANQQTSGKVLYEGKEFDYVFSIDVNEGGPSYKLPYNVSDDPWLVAYNFLQKNDLNPMFLDQVAKFIIDNTKGQTLGLGNTSFSDPFTGGGRYVPGTSGPSNTVQTADPFTGAGRYMPGSAGMDTTMTGVDPFTGNSAYRSAASKTVNIYFPKKEALTFDQANPTQILGKLKELNGTAPEEKKLTEDDLVLLEKILSLICNNSSEKPTAQQLQILWKAINWPEDIVFPALDILRLSIKHPNVNENFCNEKGDQFSSHLINLLNPKGKPANQLLALRTFCNCFVSQAGQKLMMSQRESLMSHAIELKSGSNKNIHIALATLTLNYSVCFHKDHNIEGKAQCLSVISTILEVVQDLEATFRLLVALGTLISDDSNAIQLAKSLGVDSQIKKYVSVSEPAKVSECCRLVLHLL
Turning to B1, the binding entry in test [2] is “binds”.
